No constants are given. Whether binding was seen depends on the method and setting.

This assay has as its target tomato ortholog of Arabidopsis F-box protein STERILE APETALA (SAP) (tomato (Solanum lycopersicum)). Kind of assay: two-hybrid.

Turning to “tomato PEAPOD 1 (PPD1) (from UniProt A0A3Q7HYU3)”, the binding result is “no binding”.
In the case of “tomato PEAPOD 2 (PPD2) (from UniProt A0A190V579)”, the binding entry is “no binding”.

(Values after doi:10.1101/2020.02.07.938977.)
